Data on one molecule can be found in patent publication US20040053231A1.

Sequences of proteins named here, by UniProt entry; tags and fusion partners are left off. Residues count along the entry.
UniProt Q09472, residues 300-528: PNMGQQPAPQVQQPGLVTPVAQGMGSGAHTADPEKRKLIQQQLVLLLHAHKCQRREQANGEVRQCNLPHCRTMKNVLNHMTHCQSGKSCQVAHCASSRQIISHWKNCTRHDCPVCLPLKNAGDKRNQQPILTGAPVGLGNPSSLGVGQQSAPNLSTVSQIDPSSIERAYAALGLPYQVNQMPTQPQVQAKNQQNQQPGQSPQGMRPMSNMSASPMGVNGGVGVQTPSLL

Results are given in words; binding and its absence hold for the method and conditions named. In cells and extracts the contact can be indirect. Some binding calls cover weakened binding; strength is not graded here.

The target in the assay is GST-p300CH1 (p300 residues 300-528) (UniProt Q09472). Nature of the assay: competition in GST-p300CH1 pull-down; GST-CH1 pre-incubated with the peptide, competitor of 35S-labelled SREBP2.

For DEEALTSLELELGLHRVRELPELFLGQSEFDCF, the binding result is given as “binds”.
